The values that follow come from PMC12682068.

These are yes or no findings as the source states them, for the method shown. Binding seen in cells or lysates may run through a third protein. For some assays here: Binding can be weak; no strength is given. Sequences can lack the tags named with a protein.

Experiment [1] deals with AcCaS-nLuc (kiwifruit (Actinidia chinensis var. chinensis)). Put plainly: split reporter; luciferase complementation imaging (LCI); nLuc and cLuc constructs co-expressed in N. benthamiana leaves, 0.5 mM D-luciferin, imaged at 2 dpi.
Experiment [2] deals with AcCaS^N121A-nLuc (kiwifruit (Actinidia chinensis var. chinensis)). The experiment is described as above.

B1: HopAU1-cLuc (protein, UniProt G9I6Y2 1-731)
chain: MKPVQSVSATQHYNPLTNIGQEASCSHEISGITQTEGTQATVATTQTAEQLTTARVRDITAAAKAIPDGTTVMSRKPEDLSQLQIAYLAAKNAPTHPDLYLKLCETFRVHDERHASEGHENICAKTMTARIDDDAIRVMAYASRGMHGGDVNNFLKFSFNSGLPNPISSALPSMLTFGASSFIGAVHGPWSGFGSALAFAAAKPFMAGGIQPAIVSLCDNIRGRNAPTVLAKGEVNDEIWLDAAAQTLEGLNEDTRRALTSFDDAVQAAITSVGIRDPKFLETDEGLELFFDHLSDTHFNGLREALEGVNNALQNTAPQTRESLRALEEASRPNMLEQRETTLKAEFSNLRQKEGNDWQRIPRSLRASGGTLTSGLSGLKKDEIPTRMNPALDRKSHFEGLNALASPAVGTSYAAAISLLQSPMAGLDERNKQKFNVKAAIVFYDAFTPEGKQRYLAGEEMDPDRDVDQAKLRGVFTSVSEYMVKSTQENLKQRQKVLGVEISEAGHALNALPENTSSISAPEIRAKVERYKALSADMSAVTQAIREGNPNFLTDLPDGEVKKAFDDCVNSGGMHVLENMTKVKYAKQGELKAQWTQKVSTDVSMFGLAGQFTPSIVNKLAAAICGGAGHIPNAVVGFLGAYSLAASFIGAQTQFAAINAKNNFREGNPKPTSLETFMRGNLAPVMQASANRHSQHALQGAEQAISTARQALNSSLGQNLRRRPSARTQQE
On to B1, for which the figures for the binding result in experiment [1] and in experiment [2] were “binds” and “no binding”, respectively.
